The test concerns the target T1, B-cell receptor-associated protein 31 (BAP31) (human (endogenous in MKN-45)) (UniProt P51572).
T1 sequence: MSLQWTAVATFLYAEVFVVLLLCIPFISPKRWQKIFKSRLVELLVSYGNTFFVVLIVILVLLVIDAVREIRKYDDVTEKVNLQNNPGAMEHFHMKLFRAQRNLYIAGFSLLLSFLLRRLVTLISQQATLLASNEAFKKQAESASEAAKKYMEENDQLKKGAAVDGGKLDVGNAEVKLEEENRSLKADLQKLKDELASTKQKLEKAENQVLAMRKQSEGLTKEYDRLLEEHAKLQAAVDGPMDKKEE
The test can be described thus: co-IP; immunoprecipitation with anti-BAP31 monoclonal antibody (7A3BB6) from enriched membrane proteins of MKN-45 lysate, 1% Nonidet P 40, 150 mM NaCl, 50 mM Tris-HCl pH 7.4, 4 °C; blot for EpCAM; compared to preimmune IgG.

Consider 1 molecule from PMC10572819.

These are yes or no findings as the source states them, for the method shown. Binding seen in cells or lysates may run through a third protein. Some binding calls cover weakened binding; strength is not graded here.

B1: epithelial cell-adhesion molecule (EpCAM) (protein, UniProt P16422 24-314)
chain: QEECVCENYKLAVNCFVNNNRQCQCTSVGAQNTVICSKLAAKCLVMKAEMNGSKLGRRAKPEGALQNNDGLYDPDCDESGLFKAKQCNGTSMCWCVNTAGVRRTDKDTEITCSERVRTYWIIIELKHKAREKPYDSKSLRTALQKEITTRYQLDPKFITSILYENNVITIDLVQNSSQKTQNDVDIADVAYYFEKDVKGESLFHSKKMDLTVNGEQLDLDPGQTLIYYVDEKAPEFSMQGLKAGVIAVIVVVVIAVVAGIVVLVISRKKRMAKYEKAEIKEMGEMHRELNA
Consider B1, for which the binding entry was “binds”.
